This series is described as follows: Permeability of compound at pH 7.4 by PAMPA assay.

The results in this text go back to ChEMBL document CHEMBL5143593 (Eur J Med Chem, 2022).

As usually defined, the Papp is a coefficient for how fast a substance crosses the barrier.

In turn, `COc1cc2c(cc1OC)C(=O)C(CC1CCN(Cc3ccccc3)CC1)C2` (stereo unspecified) [DONEPEZIL] had an apparent permeability coefficient (Papp) of 21 ×10⁻⁶ cm/s.
